These are yes or no findings as the source states them, for the method shown. In cells and extracts the contact can be indirect. These calls come from enrichment with a bait or labelling near it, and not all partners need be listed.
Key:
[1] = target: Extracellular-Signal-Regulated Kinase 5 (ERK5) (human (endogenous in NP9)) (UniProt Q13164); assay: affinity purification with mass spectrometry; NP9 whole cell extracts (mild lysis buffer) immunoprecipitated with anti-ERK5 N-terminus or C-terminus antibodies, with or without an excess of the competing antigen; SDS-PAGE 5-10% gradient, silver stain, band cut out, MALDI-TOF peptide mass fingerprint (Mascot, Swiss-Prot)
[2] = target: Extracellular-Signal-Regulated Kinase 5 (ERK5) (human (endogenous in NP9)) (UniProt Q13164); assay: affinity purification with mass spectrometry; immunoaffinity chromatography: NP9 cell extracts on anti-ERK5 C-terminus antibody coupled to CNBr-activated Sepharose 4B, 2 h at 4 °C; eluted with 0.1 M glycine pH 2.6; SDS-PAGE 5-15% gradient, silver stain, MALDI-TOF

Protein sequences, listed by entry. Tags and fused reporters are not part of them. Lines headed by an entry give the natural chain unless they say otherwise; changes in a name come on top. Chains listed by the source or under a name are the forms on record and can include a tag or linker. Residues count along the entry.
UniProt Q13164: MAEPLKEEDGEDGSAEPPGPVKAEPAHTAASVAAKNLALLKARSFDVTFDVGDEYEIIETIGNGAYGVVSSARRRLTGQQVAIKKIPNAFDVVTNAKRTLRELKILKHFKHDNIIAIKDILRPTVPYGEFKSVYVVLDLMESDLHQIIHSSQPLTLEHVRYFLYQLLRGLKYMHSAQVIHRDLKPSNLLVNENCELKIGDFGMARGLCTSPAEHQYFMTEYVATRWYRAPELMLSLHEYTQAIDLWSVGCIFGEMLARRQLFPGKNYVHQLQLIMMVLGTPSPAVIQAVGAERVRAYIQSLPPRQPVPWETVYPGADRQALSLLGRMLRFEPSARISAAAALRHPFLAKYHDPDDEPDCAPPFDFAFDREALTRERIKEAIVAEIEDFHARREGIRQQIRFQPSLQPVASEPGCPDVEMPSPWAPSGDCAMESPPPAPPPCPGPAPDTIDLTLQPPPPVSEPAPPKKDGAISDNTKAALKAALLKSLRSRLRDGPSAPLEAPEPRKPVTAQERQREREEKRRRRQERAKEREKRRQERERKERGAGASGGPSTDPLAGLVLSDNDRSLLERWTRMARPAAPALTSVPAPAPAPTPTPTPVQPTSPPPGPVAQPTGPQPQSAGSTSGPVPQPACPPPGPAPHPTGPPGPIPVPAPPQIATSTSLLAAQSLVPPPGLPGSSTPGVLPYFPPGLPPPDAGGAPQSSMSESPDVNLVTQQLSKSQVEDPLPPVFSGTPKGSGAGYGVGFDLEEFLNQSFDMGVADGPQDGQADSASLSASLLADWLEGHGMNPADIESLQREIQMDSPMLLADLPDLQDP
kidney glutaminase (KGA), isoform of mitochondrial glutaminase GLS (O94925, residues 55-669): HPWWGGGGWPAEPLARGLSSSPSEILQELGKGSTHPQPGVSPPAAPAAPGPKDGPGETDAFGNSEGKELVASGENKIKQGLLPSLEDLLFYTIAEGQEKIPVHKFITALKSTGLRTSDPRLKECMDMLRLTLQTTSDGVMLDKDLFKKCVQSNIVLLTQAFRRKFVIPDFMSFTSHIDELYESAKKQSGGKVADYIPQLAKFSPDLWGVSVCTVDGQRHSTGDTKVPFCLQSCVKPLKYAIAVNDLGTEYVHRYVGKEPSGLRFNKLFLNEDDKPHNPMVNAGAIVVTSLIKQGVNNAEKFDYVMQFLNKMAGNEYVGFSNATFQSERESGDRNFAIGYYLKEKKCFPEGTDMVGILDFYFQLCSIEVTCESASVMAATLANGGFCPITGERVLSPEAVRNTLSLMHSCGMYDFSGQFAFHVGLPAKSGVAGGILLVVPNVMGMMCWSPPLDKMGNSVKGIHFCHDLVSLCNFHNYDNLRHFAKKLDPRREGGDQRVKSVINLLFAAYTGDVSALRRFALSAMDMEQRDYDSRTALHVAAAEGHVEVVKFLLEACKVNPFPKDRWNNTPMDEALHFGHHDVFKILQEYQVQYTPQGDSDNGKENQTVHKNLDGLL
glutaminase C (GAC), isoform of mitochondrial glutaminase GLS (O94925-3, form named): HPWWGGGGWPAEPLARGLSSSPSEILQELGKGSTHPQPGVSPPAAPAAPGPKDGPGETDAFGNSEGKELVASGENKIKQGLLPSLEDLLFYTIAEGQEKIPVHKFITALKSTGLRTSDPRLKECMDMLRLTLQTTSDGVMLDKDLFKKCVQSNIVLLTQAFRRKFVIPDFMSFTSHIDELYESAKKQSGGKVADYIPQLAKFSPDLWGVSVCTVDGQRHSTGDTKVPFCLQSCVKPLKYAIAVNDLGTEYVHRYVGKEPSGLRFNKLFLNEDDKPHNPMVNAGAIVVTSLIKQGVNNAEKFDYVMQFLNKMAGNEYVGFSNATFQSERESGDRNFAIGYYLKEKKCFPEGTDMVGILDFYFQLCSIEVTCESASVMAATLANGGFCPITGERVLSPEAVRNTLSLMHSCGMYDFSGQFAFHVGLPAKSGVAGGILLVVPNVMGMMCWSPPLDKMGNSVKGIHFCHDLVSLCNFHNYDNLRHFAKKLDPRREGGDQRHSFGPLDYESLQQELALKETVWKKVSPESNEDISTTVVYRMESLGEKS

Substance	binding [1]	binding [2]
glutaminase C (GAC), isoform of mitochondrial glutaminase GLS (from UniProt O94925-3 55-598) (enzyme)	binds	binds
kidney glutaminase (KGA), isoform of mitochondrial glutaminase GLS (from UniProt O94925 55-669) (enzyme)	binds	binds

From paper PMC10970367
